Where two headings read alike, the source gives them in different places. These are yes or no findings as the source states them, for the method shown. In cells and extracts the contact can be indirect. Some entries that bind do so weakly or less than the wild type. Where a sequence is shown, tags or fusion partners need not be part of it.
Legend:
Assay in all cases: co-IP
[1] = biological target: T1, human GMNC (HA-tagged) (human) (UniProt A6NCL1)
T1 sequence: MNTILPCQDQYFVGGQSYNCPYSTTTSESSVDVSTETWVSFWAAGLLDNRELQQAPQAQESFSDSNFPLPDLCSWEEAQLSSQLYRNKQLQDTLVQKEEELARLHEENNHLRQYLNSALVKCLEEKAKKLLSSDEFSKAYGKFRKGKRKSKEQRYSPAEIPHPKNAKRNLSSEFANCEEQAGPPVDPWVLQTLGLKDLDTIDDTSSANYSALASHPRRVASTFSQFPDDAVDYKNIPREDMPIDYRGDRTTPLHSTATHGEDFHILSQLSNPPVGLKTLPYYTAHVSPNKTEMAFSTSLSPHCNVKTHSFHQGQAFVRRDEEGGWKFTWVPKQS

Sequences of proteins named here, by UniProt entry; tags and fusion partners are left off.
UniProt Q14186, whole entry: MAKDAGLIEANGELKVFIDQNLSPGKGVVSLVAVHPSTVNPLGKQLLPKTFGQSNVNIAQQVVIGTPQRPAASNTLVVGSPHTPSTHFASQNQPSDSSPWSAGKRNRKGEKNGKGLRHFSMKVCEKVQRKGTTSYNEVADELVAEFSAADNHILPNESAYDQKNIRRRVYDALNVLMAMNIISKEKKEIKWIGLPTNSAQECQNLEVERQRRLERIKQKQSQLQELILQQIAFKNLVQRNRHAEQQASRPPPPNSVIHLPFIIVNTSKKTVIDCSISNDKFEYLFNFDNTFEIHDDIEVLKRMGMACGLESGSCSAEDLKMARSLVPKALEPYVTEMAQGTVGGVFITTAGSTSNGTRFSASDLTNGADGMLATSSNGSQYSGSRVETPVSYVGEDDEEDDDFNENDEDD
UniProt Q8R0K9, whole entry: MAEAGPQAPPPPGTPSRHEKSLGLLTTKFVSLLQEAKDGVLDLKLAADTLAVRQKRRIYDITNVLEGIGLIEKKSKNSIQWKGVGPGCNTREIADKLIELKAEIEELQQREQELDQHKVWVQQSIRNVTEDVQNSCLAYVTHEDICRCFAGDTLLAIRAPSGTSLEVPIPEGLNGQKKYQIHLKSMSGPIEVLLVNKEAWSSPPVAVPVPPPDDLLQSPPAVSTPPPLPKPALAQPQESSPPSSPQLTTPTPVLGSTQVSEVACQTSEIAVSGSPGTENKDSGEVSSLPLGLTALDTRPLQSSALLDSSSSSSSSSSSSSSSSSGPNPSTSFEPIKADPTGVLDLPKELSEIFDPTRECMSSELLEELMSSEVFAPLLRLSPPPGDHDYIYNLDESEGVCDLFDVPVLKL
UniProt Q16254, whole entry: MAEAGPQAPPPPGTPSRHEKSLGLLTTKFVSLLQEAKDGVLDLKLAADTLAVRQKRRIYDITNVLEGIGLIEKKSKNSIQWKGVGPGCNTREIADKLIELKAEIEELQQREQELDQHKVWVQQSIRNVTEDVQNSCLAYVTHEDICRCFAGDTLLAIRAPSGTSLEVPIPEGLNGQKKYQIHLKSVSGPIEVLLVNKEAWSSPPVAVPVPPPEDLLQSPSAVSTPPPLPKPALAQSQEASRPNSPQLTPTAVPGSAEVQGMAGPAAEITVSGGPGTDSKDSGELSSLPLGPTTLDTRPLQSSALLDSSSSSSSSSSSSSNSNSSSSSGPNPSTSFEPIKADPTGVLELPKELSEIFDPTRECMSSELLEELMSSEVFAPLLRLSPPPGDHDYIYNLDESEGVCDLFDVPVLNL
UniProt Q15329, whole entry: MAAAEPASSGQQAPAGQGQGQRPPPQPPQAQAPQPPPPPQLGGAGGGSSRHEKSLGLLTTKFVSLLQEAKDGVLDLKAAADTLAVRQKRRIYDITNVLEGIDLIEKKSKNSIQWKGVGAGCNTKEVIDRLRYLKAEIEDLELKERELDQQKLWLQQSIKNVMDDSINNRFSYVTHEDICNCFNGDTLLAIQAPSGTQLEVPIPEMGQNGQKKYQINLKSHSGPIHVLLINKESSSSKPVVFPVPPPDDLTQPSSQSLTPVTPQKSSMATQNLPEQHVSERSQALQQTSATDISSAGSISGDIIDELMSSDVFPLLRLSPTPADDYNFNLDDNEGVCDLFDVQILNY
UniProt Q61502, whole entry: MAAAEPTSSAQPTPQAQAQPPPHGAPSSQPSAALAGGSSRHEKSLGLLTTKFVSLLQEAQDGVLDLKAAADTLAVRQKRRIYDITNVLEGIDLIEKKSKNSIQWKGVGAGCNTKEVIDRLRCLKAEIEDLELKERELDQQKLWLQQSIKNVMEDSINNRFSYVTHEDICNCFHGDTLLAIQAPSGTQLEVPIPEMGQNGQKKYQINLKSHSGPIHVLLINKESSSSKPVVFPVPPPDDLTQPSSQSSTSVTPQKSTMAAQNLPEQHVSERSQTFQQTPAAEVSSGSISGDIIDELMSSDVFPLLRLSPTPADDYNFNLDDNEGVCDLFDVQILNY

[2] = biological target: T2, mouse GMNC (HA-tagged) (mouse) (UniProt Q3URY2)
T2 sequence: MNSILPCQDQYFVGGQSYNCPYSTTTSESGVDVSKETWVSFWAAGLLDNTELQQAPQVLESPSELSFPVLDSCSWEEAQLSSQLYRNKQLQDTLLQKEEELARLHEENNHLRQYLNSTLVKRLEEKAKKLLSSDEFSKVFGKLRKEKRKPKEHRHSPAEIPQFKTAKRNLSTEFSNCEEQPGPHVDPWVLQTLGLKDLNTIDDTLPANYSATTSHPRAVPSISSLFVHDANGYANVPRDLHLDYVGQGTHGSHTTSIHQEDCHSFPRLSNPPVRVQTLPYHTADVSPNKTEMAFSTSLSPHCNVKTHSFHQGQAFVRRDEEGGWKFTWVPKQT

[3] = biological target: T3, mouse MCIDAS (HA-tagged) (mouse) (UniProt Q3UZ45)
T3 sequence: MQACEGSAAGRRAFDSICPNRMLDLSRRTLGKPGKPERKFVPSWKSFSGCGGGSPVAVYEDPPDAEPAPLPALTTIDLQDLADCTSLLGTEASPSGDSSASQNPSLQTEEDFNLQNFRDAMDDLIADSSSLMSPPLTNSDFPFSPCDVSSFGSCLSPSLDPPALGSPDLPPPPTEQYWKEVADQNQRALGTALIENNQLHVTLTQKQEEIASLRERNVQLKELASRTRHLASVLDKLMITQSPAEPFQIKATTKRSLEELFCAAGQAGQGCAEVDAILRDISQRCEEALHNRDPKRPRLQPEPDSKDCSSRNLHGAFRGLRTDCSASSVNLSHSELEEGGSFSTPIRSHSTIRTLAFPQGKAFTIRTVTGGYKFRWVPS

[4] = biological target: T4, human MCIDAS (HA-tagged) (human) (UniProt D6RGH6)
T4 sequence: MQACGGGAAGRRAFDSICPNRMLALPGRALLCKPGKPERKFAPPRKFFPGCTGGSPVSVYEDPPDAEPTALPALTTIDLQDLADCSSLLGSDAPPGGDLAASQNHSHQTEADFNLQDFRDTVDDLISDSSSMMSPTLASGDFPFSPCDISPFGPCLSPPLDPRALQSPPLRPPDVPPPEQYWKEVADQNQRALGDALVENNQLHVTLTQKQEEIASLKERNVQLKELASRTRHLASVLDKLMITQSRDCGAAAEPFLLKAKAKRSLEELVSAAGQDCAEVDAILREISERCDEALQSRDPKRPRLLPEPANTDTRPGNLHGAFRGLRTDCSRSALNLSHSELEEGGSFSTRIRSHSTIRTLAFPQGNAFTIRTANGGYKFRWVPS

[5] = biological target: T2, mouse GMNC (HA-tagged) (mouse); remark: listed apart in the source

“human DP1 (6x Myc-tagged) (from UniProt Q14186 1-410)” was tested, and the binding [1] was “binds”.

For “mouse E2F4 (6x Myc-tagged) (from UniProt Q8R0K9 1-410)”, the binding [2] was “binds weakly” and the binding [3] was “binds”.

With “human E2F4 (6x Myc-tagged) (from UniProt Q16254 1-413)” the binding [4] was “binds”.

“human E2F5 (6x Myc-tagged) (from UniProt Q15329 1-346)” was tested, and the binding [1] was “binds” and the binding [4] was “binds”.

For “mouse E2F5 (6x Myc-tagged) (from UniProt Q61502 1-335)”, the binding [2] was “binds” and the binding [3] was “binds”.

B1: mouse DP1 (6x Myc-tagged) (protein, UniProt Q08639 1-410)
chain: MAKDASLIEANGELKVFIDQNLSPGKGVVSLVAVHPSTVNTLGKQLLPKTFGQSNVNITQQVVIGTPQRPAASNTIVVGSPHTPNTHFVSQNQTSDSSPWSAGKRNRKGEKNGKGLRHFSMKVCEKVQRKGTTSYNEVADELVAEFSAADNHILPNESAYDQKNIRRRVYDALNVLMAMNIISKEKKEIKWIGLPTNSAQECQNLEVERQRRLERIKQKQSQLQELILQQIAFKNLVQRNRQAEQQARRPPPPNSVIHLPFIIVNTSRKTVIDCSISNDKFEYLFNFDNTFEIHDDIEVLKRMGMACGLESGNCSAEDLKVARSLVPKALEPYVTEMAQGSIGGVFVTTTGSTSNGTRLSASDLSNGADGMLATSSNGSQYSGSRVETPVSYVGEDDDDDDDFNENDEED
B1 was tested, and the binding [5] was “binds”.
